# No constants are given. Whether binding was seen depends on the method and setting. In cells and extracts the contact can be indirect. Here binding means that the protein was enriched with, or labelled near, the bait; the list need not be complete.
# Chains of the proteins cited; added tags and fusions are not shown.
# UniProt P14635: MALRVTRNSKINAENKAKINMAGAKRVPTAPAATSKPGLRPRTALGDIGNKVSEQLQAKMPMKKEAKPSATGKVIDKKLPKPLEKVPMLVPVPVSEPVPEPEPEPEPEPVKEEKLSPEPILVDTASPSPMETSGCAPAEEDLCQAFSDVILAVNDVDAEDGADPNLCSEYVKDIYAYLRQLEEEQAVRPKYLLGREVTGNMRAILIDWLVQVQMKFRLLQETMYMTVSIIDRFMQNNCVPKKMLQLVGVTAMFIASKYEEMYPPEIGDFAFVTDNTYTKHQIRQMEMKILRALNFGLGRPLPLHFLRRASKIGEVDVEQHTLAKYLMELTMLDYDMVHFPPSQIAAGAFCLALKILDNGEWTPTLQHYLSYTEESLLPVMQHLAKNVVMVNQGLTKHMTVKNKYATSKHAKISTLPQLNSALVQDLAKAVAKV
# UniProt O60566: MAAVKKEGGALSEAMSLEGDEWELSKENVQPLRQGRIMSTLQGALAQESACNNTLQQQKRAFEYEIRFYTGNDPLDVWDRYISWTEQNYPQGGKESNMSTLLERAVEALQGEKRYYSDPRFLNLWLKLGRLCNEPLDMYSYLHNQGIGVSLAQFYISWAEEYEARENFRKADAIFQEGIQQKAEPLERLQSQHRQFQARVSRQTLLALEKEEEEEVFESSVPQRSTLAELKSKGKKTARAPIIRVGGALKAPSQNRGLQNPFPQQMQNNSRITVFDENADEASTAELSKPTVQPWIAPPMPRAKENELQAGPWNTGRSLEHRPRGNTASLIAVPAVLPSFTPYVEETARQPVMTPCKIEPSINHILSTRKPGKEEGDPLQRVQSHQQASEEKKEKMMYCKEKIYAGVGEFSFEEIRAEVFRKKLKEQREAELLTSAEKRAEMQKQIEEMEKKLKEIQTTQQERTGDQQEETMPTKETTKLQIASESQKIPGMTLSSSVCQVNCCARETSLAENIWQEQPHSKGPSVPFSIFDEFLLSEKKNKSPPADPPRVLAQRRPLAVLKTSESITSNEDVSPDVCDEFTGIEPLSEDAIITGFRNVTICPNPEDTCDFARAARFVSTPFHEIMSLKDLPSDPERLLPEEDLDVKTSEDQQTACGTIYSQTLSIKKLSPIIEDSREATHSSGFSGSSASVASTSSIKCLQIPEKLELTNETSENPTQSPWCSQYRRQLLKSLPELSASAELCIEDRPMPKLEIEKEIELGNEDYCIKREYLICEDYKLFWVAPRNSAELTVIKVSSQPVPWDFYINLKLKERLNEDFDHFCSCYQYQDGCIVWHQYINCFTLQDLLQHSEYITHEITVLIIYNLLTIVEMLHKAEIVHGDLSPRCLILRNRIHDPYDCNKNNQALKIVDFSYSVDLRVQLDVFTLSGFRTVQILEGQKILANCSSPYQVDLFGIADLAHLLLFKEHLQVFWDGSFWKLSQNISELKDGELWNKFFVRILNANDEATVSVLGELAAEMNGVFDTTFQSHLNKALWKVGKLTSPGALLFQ
# UniProt Q13257: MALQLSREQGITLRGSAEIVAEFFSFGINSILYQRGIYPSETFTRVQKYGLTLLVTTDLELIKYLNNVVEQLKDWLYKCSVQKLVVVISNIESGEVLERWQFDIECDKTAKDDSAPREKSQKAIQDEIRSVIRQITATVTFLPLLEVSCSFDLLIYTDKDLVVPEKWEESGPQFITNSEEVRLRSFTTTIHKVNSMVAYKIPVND
# UniProt Q15154: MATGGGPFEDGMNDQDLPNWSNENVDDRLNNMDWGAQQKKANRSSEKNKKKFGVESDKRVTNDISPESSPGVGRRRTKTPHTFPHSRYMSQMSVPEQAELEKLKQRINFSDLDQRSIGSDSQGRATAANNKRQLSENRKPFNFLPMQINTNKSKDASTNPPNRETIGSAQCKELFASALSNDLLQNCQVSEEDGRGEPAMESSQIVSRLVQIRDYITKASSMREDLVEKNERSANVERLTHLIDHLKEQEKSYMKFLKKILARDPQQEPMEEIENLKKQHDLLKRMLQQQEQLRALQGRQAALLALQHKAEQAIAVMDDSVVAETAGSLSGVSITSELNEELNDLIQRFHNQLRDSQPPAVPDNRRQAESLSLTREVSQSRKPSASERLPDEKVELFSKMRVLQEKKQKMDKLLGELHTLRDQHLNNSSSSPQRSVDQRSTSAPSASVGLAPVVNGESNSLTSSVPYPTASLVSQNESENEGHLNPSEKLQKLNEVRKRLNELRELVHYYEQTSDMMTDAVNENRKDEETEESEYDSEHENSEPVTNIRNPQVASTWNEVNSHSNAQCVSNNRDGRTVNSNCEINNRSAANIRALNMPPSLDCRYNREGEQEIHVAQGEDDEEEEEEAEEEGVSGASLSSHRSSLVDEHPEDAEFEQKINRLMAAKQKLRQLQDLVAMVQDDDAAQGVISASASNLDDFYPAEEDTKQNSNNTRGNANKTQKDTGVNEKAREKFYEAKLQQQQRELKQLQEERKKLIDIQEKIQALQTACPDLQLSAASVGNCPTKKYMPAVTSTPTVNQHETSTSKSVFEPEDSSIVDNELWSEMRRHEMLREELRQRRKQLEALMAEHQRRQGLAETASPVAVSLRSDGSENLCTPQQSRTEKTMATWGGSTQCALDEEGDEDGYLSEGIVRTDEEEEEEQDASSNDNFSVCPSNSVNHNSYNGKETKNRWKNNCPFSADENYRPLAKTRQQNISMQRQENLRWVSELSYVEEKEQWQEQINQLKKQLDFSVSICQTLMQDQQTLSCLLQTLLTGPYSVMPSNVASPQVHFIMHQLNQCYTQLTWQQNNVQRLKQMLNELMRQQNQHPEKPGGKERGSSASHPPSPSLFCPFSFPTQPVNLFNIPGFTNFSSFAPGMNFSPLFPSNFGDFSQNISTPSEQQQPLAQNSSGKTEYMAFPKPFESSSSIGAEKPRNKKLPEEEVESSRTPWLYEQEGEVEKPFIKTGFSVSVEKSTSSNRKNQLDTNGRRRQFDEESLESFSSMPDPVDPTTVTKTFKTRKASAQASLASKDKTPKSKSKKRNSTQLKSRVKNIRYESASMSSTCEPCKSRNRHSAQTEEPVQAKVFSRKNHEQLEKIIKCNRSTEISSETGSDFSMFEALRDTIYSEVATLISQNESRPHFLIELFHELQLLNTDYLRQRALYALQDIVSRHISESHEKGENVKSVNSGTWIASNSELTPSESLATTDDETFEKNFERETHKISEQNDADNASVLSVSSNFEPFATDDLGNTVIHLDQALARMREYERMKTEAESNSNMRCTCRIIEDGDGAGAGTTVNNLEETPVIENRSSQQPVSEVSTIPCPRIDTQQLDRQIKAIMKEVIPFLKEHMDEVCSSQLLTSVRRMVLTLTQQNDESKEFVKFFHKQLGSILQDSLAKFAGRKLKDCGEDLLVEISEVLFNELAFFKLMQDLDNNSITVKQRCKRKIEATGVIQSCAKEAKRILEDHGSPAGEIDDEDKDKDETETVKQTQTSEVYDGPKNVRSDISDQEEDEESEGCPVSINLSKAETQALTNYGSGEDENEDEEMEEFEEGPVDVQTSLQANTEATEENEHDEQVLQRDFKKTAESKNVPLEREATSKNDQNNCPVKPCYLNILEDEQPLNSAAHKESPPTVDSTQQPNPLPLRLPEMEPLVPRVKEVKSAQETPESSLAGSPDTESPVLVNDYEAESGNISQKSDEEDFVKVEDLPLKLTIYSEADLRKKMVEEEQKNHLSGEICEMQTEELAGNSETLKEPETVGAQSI
# Biological target: Flag-tagged wild-type cyclin B1 (human) (UniProt P14635)
# Assay: affinity purification with mass spectrometry; α-Flag IP from nocodazole-arrested HeLa cells, uninduced or expressing Flag-cyclin B1^wt or ^mut; in-gel digest, DIA mass spectrometry, three independent experiments
row,Substance,binding
1,budding uninhibited by bezimidazoles (BUB1B) (from UniProt O60566 1-1050),binds
2,mitotic arrest deficient 2-like protein 1 (MAD2L1) (from UniProt Q13257 1-205),binds
3,pericentriolar material 1 (PCM1) (from UniProt Q15154 1-2024),binds
